These results are taken from paper PMC11169341.

Chains of the proteins cited; added tags and fusions are not shown. A line that says so, or that is headed by a name, gives the form on record, which may keep a tag or linker. Residues count along the entry.
UniProt P02769, 25-607: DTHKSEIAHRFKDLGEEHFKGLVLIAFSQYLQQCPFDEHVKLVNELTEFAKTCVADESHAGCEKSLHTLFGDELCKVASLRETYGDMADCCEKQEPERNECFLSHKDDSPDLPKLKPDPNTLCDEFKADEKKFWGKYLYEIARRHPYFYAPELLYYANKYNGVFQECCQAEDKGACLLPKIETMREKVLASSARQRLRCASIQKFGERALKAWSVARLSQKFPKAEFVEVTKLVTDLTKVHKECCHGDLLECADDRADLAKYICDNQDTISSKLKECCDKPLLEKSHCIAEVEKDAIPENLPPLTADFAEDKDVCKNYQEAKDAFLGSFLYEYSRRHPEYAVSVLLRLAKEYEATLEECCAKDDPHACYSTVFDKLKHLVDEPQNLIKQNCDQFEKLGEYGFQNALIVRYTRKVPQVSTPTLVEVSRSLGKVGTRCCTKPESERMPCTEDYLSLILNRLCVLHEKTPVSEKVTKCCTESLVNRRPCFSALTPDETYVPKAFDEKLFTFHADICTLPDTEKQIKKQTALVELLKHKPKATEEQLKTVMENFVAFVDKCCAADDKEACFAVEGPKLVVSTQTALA
recombinant human B7-H3 His-tag (R&D 1949-B3-050) (Homo sapiens), one chain, as listed by the source: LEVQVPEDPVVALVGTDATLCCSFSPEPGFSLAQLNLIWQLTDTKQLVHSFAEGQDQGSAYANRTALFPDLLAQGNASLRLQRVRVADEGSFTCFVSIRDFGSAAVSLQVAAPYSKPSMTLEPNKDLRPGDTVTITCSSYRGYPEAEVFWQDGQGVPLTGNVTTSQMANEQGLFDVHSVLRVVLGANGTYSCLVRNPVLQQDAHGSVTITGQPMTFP

Negatives hold for the conditions tested.

In series [1] the test system is recombinant human B7-H3 His-tag (R&D 1949-B3-050) (Homo sapiens). Description: western blot (aptamer blot). As to conditions: SDS-denatured B7H3, biotin aptamer, only 03 detected it; ABB: AWB (composition not given) + 0.1 mg/ml yeast tRNA, 0.1 mg/ml salmon sperm DNA, 5% FBS, 1 mg/ml BSA; 60 min; 0-500 nM aptamer; flow binding assay on ice; commercial protein; protein details: C-terminal His; label: FITC or biotin; single-stranded DNA.

The target in the next series is BSA (UniProt P02769). Description: dot blot. As to conditions: 5% BSA spotted, 100 nM aptamer, same for all five aptamers; ABB: AWB (composition not given) + 0.1 mg/ml yeast tRNA, 0.1 mg/ml salmon sperm DNA, 5% FBS, 1 mg/ml BSA; 60 min; 0-500 nM aptamer; flow binding assay on ice; commercial protein; label: FITC or biotin; single-stranded DNA.

Turning to “TAGGGAAGAGAAGGACATATGATACAGCACGGTATGACGAGTCCATTGTGTGTGCAGCTCGCTAATTGACTAGTACATGACCACTT [VRF-HS_B7H3-01]”, the binding result in series [1] is listed as “no binding”. Take “TAGGGAAGAGAAGGACATATGATATAAGTGACACATCAATCTCATGCGGATGAACCAGTGCGTTTGACTAGTACATGACCACTT [VRF-HS_B7H3-03]”: the binding result with BSA was “no binding”.

Turning to “TAGGGAAGAGAAGGACATATGATCGCCCCTCTTTTCGATTTCAAGCTCCTAACCCACACCTCTTTGACTAGTACATGACCACTT [VRF-HS_B7H3-02]”, the binding result in series [1] was “no binding”. Take “TAGGGAAGAGAAGGACATATGATTGAGAAGTCACGCCACTTACCTGCGCTCAAAACCTCAGAATTGACTAGTACATGACCACTT [VRF-HS_B7H3-05]”: the binding result in series [1] is on record as “no binding”. For “TAGGGAAGAGAAGGACATATGATTGCCCCTGACACTTACACGCCACTATCAAGGCACACGCCATTGACTAGTACATGACCACTT [VRF-HS_B7H3-04]”, the binding result in series [1] is recorded as “no binding”.
